Assay results published in PubChem BioAssay AID330 (DTP/NCI, 2004).
The list shows only some results of the screen, not a fair sample: it gathers tests that were run many times, whatever their T/C, doses with no T/C, and many T/C values between a quarter and a half above the control. Further doses and runs are listed elsewhere. T/C: endpoint of the treated group in % of that of the vehicle group. Some doses have a count of surviving animals in place of a T/C: the source holds a T/C of zero for them, seemingly a mark for toxic or unscored doses. Some survivor counts are full or nearly so, which does not show that the dose was tolerated: the source hardly ever lists a survival T/C far under the control, and the zero likely stands for such cases as well. Survivors were counted at the toxicity check, usually on the fifth day, unless a day is given; later deaths do not show. Schedules are NCI's codes, taken here to give the interval after Q, in days (D) or hours (H), and the number of doses after X. Where survival is the endpoint, this PubChem deposit counts one and a half times the control or more as active, and values a quarter to a half above the control carry no call in these data; other NCI protocols may use other cut-offs. Some entries were tested several times; the values are given in rising order.

Tested on: P388 leukemia ip, CD2F1 mice, survival T/C
Experiment: NCI In Vivo Anticancer Drug Screen. Data for tumor model P388 Leukemia (intraperitoneal) in CD2F1 (CDF1) mice
Conditions: T/C endpoint: median survival time, higher T/C = longer survival
[1] = dose: 25.0 mg/kg/injection, schedule: Q01DX005 (ip), vehicle: Klucel (hydroxypropylcellulose) (HPC)
[2] = dose: 200.0 mg/kg/injection, schedule: Q01DX009 (ip), vehicle: saline with Tween-80
[3] = dose: 50.0 mg/kg/injection, schedule: Q01DX005 (ip), vehicle: saline with Tween-80

With `O=[N+]([O-])c1ccccc1NN=NCCF` the survivor count [1] was 3 of 5, the survivor count (dose: 50.0 mg/kg/injection, schedule: Q01DX005 (ip), vehicle: Klucel (hydroxypropylcellulose) (HPC)) was 0 of 5 and the survivor count (dose: 100.0 mg/kg/injection, schedule: Q01DX005 (ip), vehicle: Klucel (hydroxypropylcellulose) (HPC)) was 0 of 5. The survivor count (dose: 200.0 mg/kg/injection, schedule: Q01DX005 (ip), vehicle: Klucel (hydroxypropylcellulose) (HPC)) was 0 of 5.

`Cc1cc[n+]2cc(-c3ccc(/C=N/N=C(N)N)cc3)n(C)c2c1` was tested, and the survivor count (dose: 12.5 mg/kg/injection, schedule: Q01DX005 (ip), vehicle: Klucel (hydroxypropylcellulose) (HPC)) was 3 of 6 and the survivor count [1] was 0 of 6.

For `CCOC(=O)N[C@H]1CCc2cc(OC)c(OC)c(OC)c2-c2ccc(SC)c(=O)cc21`, the T/C (dose: 0.38 mg/kg/injection, schedule: Q01DX009 (ip), vehicle: other) was 147 % of control, the T/C (dose: 0.38 mg/kg/injection, schedule: Q01DX009 (ip), vehicle: saline with Tween-80) was 130 % of control and the T/C (dose: 0.75 mg/kg/injection, schedule: Q01DX009 (ip), vehicle: saline with Tween-80) was 130 % of control. For the same compound, the T/C (dose: 1.5 mg/kg/injection, schedule: Q01DX009 (ip), vehicle: other) was 145 % of control, the T/C (dose: 1.5 mg/kg/injection, schedule: Q01DX009 (ip), vehicle: saline with Tween-80) was 139 % of control and the T/C (dose: 3.0 mg/kg/injection, schedule: Q01DX009 (ip), vehicle: saline with Tween-80) was 130 % of control. For the same compound, the survivor count (dose: 6.0 mg/kg/injection, schedule: Q01DX009 (ip), vehicle: other) was 5 of 6, the survivor count (dose: 12.0 mg/kg/injection, schedule: Q01DX009 (ip), vehicle: other) was 5 of 6 and the survivor count (dose: 24.0 mg/kg/injection, schedule: Q01DX009 (ip), vehicle: other) was 4 of 6.

For `CC1(C)OCC(C2OC3OC(C)(C)OC3C2OP(=O)(N2CC2)N2CC2)O1` (stereo unspecified), the T/C [2] was 133 % of control.

For `Cc1nnc(N/N=C/c2ccc([N+](=O)[O-])o2)[nH]c1=O`, the T/C (dose: 25.0 mg/kg/injection, schedule: Q01DX005 (ip), vehicle: saline with Tween-80) was 128, 144, 145 % of control, the T/C [3] was 133 and 137 % of control and the survivor count [3] was 6 of 6. For the same compound, the survivor count (dose: 100.0 mg/kg/injection, schedule: Q01DX005 (ip), vehicle: saline with Tween-80) was 2 of 6 and the survivor count (dose: 200.0 mg/kg/injection, schedule: Q01DX005 (ip), vehicle: saline with Tween-80) was 0 of 6.

In the case of `CC(C)=CCC(OC(=O)C=C(C)C)c1cc(O)c2c(O)ccc(O)c2c1O.[Cu]` (stereo unspecified), the survivor count (dose: 400.0 mg/kg/injection, schedule: Q04DX002 (ip), vehicle: saline with Tween-80) is reported as 6 of 6.

`COc1cc(O)c(Cc2ccccc2O)c(O)c1C(=O)CCc1ccccc1` was tested, and the T/C (dose: 10.0 mg/kg/injection, schedule: Q01DX009 (ip), vehicle: saline with Tween-80) was 133 % of control.

For `C[N+]1(C)CCCC(C(=O)c2ccccc2)C1` (stereo unspecified), the survivor count (dose: 60.0 mg/kg/injection, schedule: Q01DX005 (ip), vehicle: saline) was 0 of 6, the survivor count (dose: 120.0 mg/kg/injection, schedule: Q01DX005 (ip), vehicle: saline) was 0 of 6 and the survivor count (dose: 240.0 mg/kg/injection, schedule: Q01DX005 (ip), vehicle: saline) was 0 of 6.

`CC1CCC2(OC1)OC1C(O)C3C4CCC5CC(OC6OC(CO)C(OC7OC(CO)C(O)C(OC8OCC(O)C(O)C8O)C7OC7OC(CO)C(O)C(OC8OC(CO)C(O)C(O)C8O)C7O)C(O)C6O)C(O)CC5(C)C4CCC3(C)C1C2C` (stereo unspecified) was tested, and the survivor count (dose: 5.0 mg/kg/injection, schedule: Q01DX009 (ip), vehicle: saline) was 10 of 10, the survivor count (dose: 10.0 mg/kg/injection, schedule: Q01DX009 (ip), vehicle: saline) was 10 of 10 and the survivor count (dose: 20.0 mg/kg/injection, schedule: Q01DX009 (ip), vehicle: saline) was 10 of 10.

With `C=CC(=NC(C)C)NC(C)C` the survivor count (dose: 6.25 mg/kg/injection, schedule: Q01DX009 (ip), vehicle: saline with Tween-80) was 0 of 6, the survivor count (dose: 6.25 mg/kg/injection, schedule: Q01DX009 (ip), vehicle: saline) was 0 of 6 and the survivor count (dose: 12.5 mg/kg/injection, schedule: Q01DX009 (ip), vehicle: saline with Tween-80) was 0 of 6. For the same compound, the survivor count (dose: 25.0 mg/kg/injection, schedule: Q01DX009 (ip), vehicle: saline with Tween-80) was 0 of 6, the survivor count (dose: 50.0 mg/kg/injection, schedule: Q01DX009 (ip), vehicle: saline with Tween-80) was 0 of 6 and the survivor count (dose: 100.0 mg/kg/injection, schedule: Q01DX009 (ip), vehicle: saline with Tween-80) was 0 of 6. The survivor count [2] was 0 of 6.
